Here are results for 1 molecule from article doi:10.1101/2024.03.18.584613.

Protein sequences, listed by entry. Tags and fused reporters are not part of them.
UniProt Q3KP44: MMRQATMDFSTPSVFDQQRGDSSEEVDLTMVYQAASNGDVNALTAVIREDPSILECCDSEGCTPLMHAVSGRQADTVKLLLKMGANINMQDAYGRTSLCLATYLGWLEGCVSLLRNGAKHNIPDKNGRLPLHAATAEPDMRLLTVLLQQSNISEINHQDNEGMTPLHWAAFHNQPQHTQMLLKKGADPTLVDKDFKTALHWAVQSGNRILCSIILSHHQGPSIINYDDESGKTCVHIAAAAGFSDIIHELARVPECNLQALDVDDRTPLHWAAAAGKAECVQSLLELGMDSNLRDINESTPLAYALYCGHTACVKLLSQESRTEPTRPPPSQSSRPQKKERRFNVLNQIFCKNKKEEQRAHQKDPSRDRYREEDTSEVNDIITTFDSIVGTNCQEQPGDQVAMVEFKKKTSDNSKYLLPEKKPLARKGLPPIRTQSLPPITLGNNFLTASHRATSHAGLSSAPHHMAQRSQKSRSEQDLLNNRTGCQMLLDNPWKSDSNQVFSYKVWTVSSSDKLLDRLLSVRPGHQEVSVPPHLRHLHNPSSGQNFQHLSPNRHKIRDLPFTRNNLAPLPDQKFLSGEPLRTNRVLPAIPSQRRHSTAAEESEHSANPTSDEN

These are yes or no findings as the source states them, for the method shown. In cells and extracts the contact can be indirect. Tags and fused reporters may be left off the sequences shown.

The test has as its target ANKRD55-EGFP (human) (UniProt Q3KP44). Put plainly: co-IP.

B1: IFT74 fused to mCherry (protein, UniProt Q96LB3 1-600)
chain: MASNHKSSAARPVSRGGVGLTGRPPSGIRPLSGNIRVATAMPPGTARPGSRGCPIGTGGVLSSQIKVAHRPVTQQGLTGMKTGTKGPQRQILDKSYYLGLLRSKISELTTEVNKLQKGIEMYNQENSVYLSYEKRAETLAVEIKELQGQLADYNMLVDKLNTNTEMEEVMNDYNMLKAQNDRETQSLDVIFTERQAKEKQIRSVEEEIEQEKQATDDIIKNMSFENQVKYLEMKTTNEKLLQELDTLQQQLDSQNMKKESLEAEIAHSQVKQEAVLLHEKLYELESHRDQMIAEDKSIGSPMEEREKLLKQIKDDNQEIASMERQLTDTKEKINQFIEEIRQLDMDLEEHQGEMNQKYKELKKREEHMDTFIETFEETKNQELKRKAQIEANIVALLEHCSRNINRIEQISSITNQELKMMQDDLNFKSTEVQKSQSTAQNLTSDIQRLQLDLQKMELLESKMTEEQHSLKSKIKQMTTDLEIYNDLPALKSSGEEKIKKLHQERMILSTHRNAFKKIMEKQNIEYEALKTQLQENETHSQLTNLERKWQHLEQNNFAMKEFIATKSQESDYQPIKKNVTKQIAEYNKTIVDALHSTSGN
Take B1: the binding entry is on record as “no binding”.
